Values from PubChem BioAssay AID1259254 (NCATS, 2017).
In all, the deposit lists about 59,000 reagents; below is an unselected part. About 1,550 of all reagents (2.6%) were called active. 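G2 share is only a proxy for re-replication; each gene was hit by three separate siRNAs, and active genes were retested.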 Entries without a mark were called inactive. The numbers tell different reagents against one gene apart. Further read-outs or replicates are left out here. The record does not give: the amount of reagent.

Screen: 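Genome-wide screen for genes that prevent DNA re-replication in cancer cells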 (primary screen)
Cell system: human HCT116 colorectal cancer cells
Reagent: single siRNA against human genes
Duration: 3 days
Read-out: 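Nuclei stained with Hoechst and imaged; cell-cycle phase assigned by DNA content; G2 share scaled per plate, non-targeting siRNA 0%, GMNN siRNA 100%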
Scale: G2 robust z-score and G2 cells, % of GMNN control: higher = more G2 cells, more excess DNA replication
Active means: 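Active siRNAs have a G2 robust z of 5 or more median absolute deviations over the median, which in these data means about 38% or higher of GMNN control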

gene knocked down | reagent no. | G2 robust z-score | G2 cells, % of GMNN control
NOL4L | 1 | 0.519 | 6.62
NOL4L | 2 | 1.67 | 14.7
NOL4L | 3 | 1.53 | 13.7
CA5A | 1 | -1.2 | -5.48
CA5A | 2 | 1.02 | 10.2
CA5A | 3 | 3.54 | 27.9
GPR173 | 1 | 7.27 (active) | 54.1
GPR173 | 2 | -1.18 | -5.34
GPR173 | 3 | -1.12 | -4.91
COX8A | 1 | 0.822 | 8.75
COX8A | 2 | 0.857 | 9
COX8A | 3 | 0.313 | 5.17
TXNL1 | 1 | 2.06 | 17.5
TXNL1 | 2 | 0.364 | 5.53
TXNL1 | 3 | 2.27 | 19
RIT2 | 1 | -0.243 | 1.26
RIT2 | 2 | -0.189 | 1.64
RIT2 | 3 | 0.75 | 8.24
CIB1 | 1 | -0.334 | 0.617
CIB1 | 2 | 0.104 | 3.7
CIB1 | 3 | -0.483 | -0.431
CCL4 | 1 | 1.88 | 16.2
CCL4 | 2 | -0.346 | 0.536
CCL4 | 3 | 3.89 | 30.3
DHRS4L1 | 1 | -1.2 | -5.5
DHRS4L1 | 2 | -0.0369 | 2.71
DHRS4L1 | 3 | -0.548 | -0.89
PIM1 | 1 | -0.759 | -2.37
PIM1 | 2 | -0.0657 | 2.5
PIM1 | 3 | -1.36 | -6.59
GFOD1 | 1 | 1.35 | 12.5
GFOD1 | 2 | -0.856 | -3.06
GFOD1 | 3 | 1.57 | 14
GFOD1 | 4 | -0.702 | -1.97
GFOD1 | 5 | 3.4 | 26.9
GFOD1 | 6 | -0.174 | 1.75
RFXANK | 1 | -0.165 | 1.81
RFXANK | 2 | -1.18 | -5.34
RFXANK | 3 | 0.0164 | 3.08
ZRANB1 | 1 | 2.01 | 17.1
ZRANB1 | 2 | -0.891 | -3.3
ZRANB1 | 3 | -1.38 | -6.75
SOX4 | 1 | -1.16 | -5.21
SOX4 | 2 | -0.313 | 0.764
SOX4 | 3 | -0.224 | 1.39
ZDHHC15 | 1 | -0.993 | -4.02
ZDHHC15 | 2 | 1.38 | 12.6
ZDHHC15 | 3 | -0.376 | 0.323
NFYA | 1 | -0.483 | -0.432
NFYA | 2 | -0.132 | 2.04
NFYA | 3 | 0.552 | 6.85
RAB31 | 1 | -0.845 | -2.98
RAB31 | 2 | 5.77 (active) | 43.6
RAB31 | 3 | -0.753 | -2.33
JAG1 | 1 | -1.34 | -6.46
JAG1 | 2 | 2.59 | 21.2
JAG1 | 3 | 2.6 | 21.3
CRAT | 1 | 3.72 | 29.1
CRAT | 2 | 1.15 | 11
CRAT | 3 | 5.95 (active) | 44.9
NCAN | 1 | 1.71 | 15
NCAN | 2 | -1.13 | -4.97
NCAN | 3 | 0.334 | 5.32
PRPF19 | 1 | -0.848 | -3
PRPF19 | 2 | -0.0626 | 2.53
PRPF19 | 3 | 1.74 | 15.2
XKR8 | 1 | 3.14 | 25.1
XKR8 | 2 | -0.981 | -3.93
XKR8 | 3 | -0.0862 | 2.36

Already shown: an excerpt of the list.
gene knocked down | reagent no. | G2 robust z-score | G2 cells, % of GMNN control
CA5A | 3 | 3.54 | 27.9
GPR173 | 1 | 7.27 (active) | 54.1
GPR173 | 2 | -1.18 | -5.34
GPR173 | 3 | -1.12 | -4.91
COX8A | 1 | 0.822 | 8.75
